# Record: PubChem BioAssay AID743121 (NCATS, 2013)
# Assay: 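Genes whose silencing strengthens cell killing by camptothecin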 (primary screen)
# Cell system: MDA-MB-231 cells, a human breast cancer line
# Knock-down reagent: single siRNA against human genes, 20 nM siRNA (0.8 pmol per well)
# Timing: 120 h (drug added 48 h after transfection, read 72 h later)
# Challenge: camptothecin 20 nM (about EC30) for 72 h; vehicle 0.1% DMSO in parallel plates
# Read-out: 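Cell viability by ATP luminescence (CellTiter-Glo) as % of non-targeting siRNA wells, and the log2 ratio of viability without drug over viability with camptothecin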
# Direction: log2 vehicle/camptothecin viability: higher = stronger sensitisation to camptothecin; viability with camptothecin: higher = more viable cells
# Hit rule: 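Each gene scored by redundant siRNA activity (RSA) over its individual siRNA ratios; a gene is called active at p < 0.001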
# The whole screen tested about 26,000 reagents; below is an unselected part. Over the whole deposit, 167 (0.63%) were called active. 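Calls are per gene from RSA p-values that are not deposited; an individual active-marked siRNA can sensitise only weakly.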 Unmarked entries are inactive. Reagents against one gene are numbered here. Further read-outs or replicates are left out here.
Target gene,reagent,log2 vehicle/camptothecin viability,viability with camptothecin (% of control)
MXD4,1,0.444,20
MXD4,2,0.482,29.3
MXD4,3,0.0686,36.9
MXD4,4,-0.118,104
UBOX5,1,-0.0506,35.1
UBOX5,2,-0.0482,41.4
UBOX5,3,-0.0849,38.2
UBOX5,4,-0.000828,90.3
TFAP2B,1,-0.551,58.9
TFAP2B,2,-0.241,81.1
TFAP2B,3,-0.243,97.1
TFAP2B,4,-0.00703,69.1
TNFRSF14,1,0.131,36.6
TNFRSF14,2,-0.0586,97.3
TNFRSF14,3,0.144,104
TNFRSF14,4,-0.176,99.7
GPR17,1,0.246,66.2
GPR17,2,-0.0183,41.8
GPR17,3,-0.0958,100
GPR17,4,-0.704,65.2
ADCY2,1,-0.0274,100
ADCY2,2,-0.234,56.7
ADCY2,3,-0.45,75.6
ADCY2,4,-0.272,83.3
IL33R,1,0.179,73.3
IL33R,2,-0.219,79.9
IL33R,3,-0.457,86.1
IL33R,4,0.015,56.1
NAALAD2,1,-0.255,92.3
NAALAD2,2,-0.286,61.7
NAALAD2,3,0.0884,45.6
NAALAD2,4,-0.00508,64.6
VSNL1,1,-0.199,61.6
VSNL1,2,-0.301,104
VSNL1,3,-0.185,95.8
VSNL1,4,-0.0677,101
PAFAH2,1,-0.354,48.5
PAFAH2,2,-0.123,115
PAFAH2,3,0.315,4.64
PAFAH2,4,-0.162,87.5
PHOSPHO1,1,-0.325,82.3
PHOSPHO1,2,-0.578,89.2
PHOSPHO1,3,0.203,39.1
PHOSPHO1,4,-0.478,59
FAU,1,-0.266,32.3
FAU,2,-0.601,23.3
FAU,3,-0.442,43.1
FAU,4,-0.279,83.9
MATN3,1,0.0552,22.7
MATN3,2,0.0414,84.7
MATN3,3,-0.0964,107
ACTR3,1,-0.402,61.1
ACTR3,2,-0.306,61
ACTR3,3,-0.28,93.7
ACTR3,4,-0.269,86.9
ADH7,1,-0.117,84.8
ADH7,2,-0.192,103
ADH7,3,-0.0913,89.5
ADH7,4,0.344,55.1
SRD5A2,1,0.234,71
SRD5A2,2,-0.114,44.7
SRD5A2,3,0.333,24.6
PIK3R2,1,0.0956,19.7
PIK3R2,2,-0.454,108
PIK3R2,3,0.663,46.4
PIK3R2,4,0.183,85.5
ZAN,1,-0.135,54.5
ZAN,2,0.224,76.2
ZAN,3,-0.324,59.4
ZAN,4,-0.312,77.6
